From article PMC6858345, “Structural insights into heme binding to IL-36α proinflammatory cytokine” (Scientific Reports, 2019) come the findings set out here.

The nature of the series: Resonance Raman spectroscopy of heme complexes (coordination state). Also noted: key to Raman coordination state: 5c, pentacoordinated; 6c, hexacoordinated. The following applies: excitation 413 nm; for Raman coordination state: equimolar heme and protein or peptide.

B1: IL-36α: full-length interleukin-36α, recombinantly expressed in E. coli (protein, UniProt Q9UHA7 1-158, looked up)
chain: MEKALKIDTPQQGSIQDINHRVWVLQDQTLIAVPRKDRMSPVTIALISCRHVETLEKDRGNPIYLGLNGLNLCLMCAKVGDQPTLQLKEKDIMDLYNQPEPVKSFLFYHSQSGRNSTFESVAFPGWFIAVSSEGGCPLILTQELGKANTTDFGLTMLF
modifications: full-length
notes: full-length interleukin-36α, recombinantly expressed in E. coli
As to B1, the “Heme-iron coordination state by rRaman (in words)” value is given as “pentacoordinated” and the Raman coordination state is recorded as 5c.

B2: H109A: IL-36α protein mutant H109A (protein, UniProt Q9UHA7 6-158, looked up, variant H109A)
Interleukin-36 alpha: KIDTPQQGSIQDINHRVWVLQDQTLIAVPRKDRMSPVTIALISCRHVETLEKDRGNPIYLGLNGLNLCLMCAKVGDQPTLQLKEKDIMDLYNQPEPVKSFLFYASQSGRNSTFESVAFPGWFIAVSSEGGCPLILTQELGKANTTDFGLTMLF
As for B2, the “Heme-iron coordination state by rRaman (in words)” value is listed as “pentacoordination” and the Raman coordination state stood at 5c.

B3: H109AC136SP137A: IL-36α protein mutant H109A C136S P137A (protein, UniProt Q9UHA7 6-158, looked up, variant H109A C136S P137A)
Interleukin-36 alpha: KIDTPQQGSIQDINHRVWVLQDQTLIAVPRKDRMSPVTIALISCRHVETLEKDRGNPIYLGLNGLNLCLMCAKVGDQPTLQLKEKDIMDLYNQPEPVKSFLFYASQSGRNSTFESVAFPGWFIAVSSEGGSALILTQELGKANTTDFGLTMLF
Consider B3, for which the Raman coordination state came to 5c.

B4: Y108SH109A: IL-36α protein mutant Y108S H109A (protein, UniProt Q9UHA7 6-158, looked up, variant Y108S H109A)
Interleukin-36 alpha: KIDTPQQGSIQDINHRVWVLQDQTLIAVPRKDRMSPVTIALISCRHVETLEKDRGNPIYLGLNGLNLCLMCAKVGDQPTLQLKEKDIMDLYNQPEPVKSFLFSASQSGRNSTFESVAFPGWFIAVSSEGGCPLILTQELGKANTTDFGLTMLF
For the molecule B4, the Raman coordination state is 5c.

B5: Y108S: IL-36α protein mutant Y108S (protein, UniProt Q9UHA7 6-158, looked up, variant Y108S)
Interleukin-36 alpha: KIDTPQQGSIQDINHRVWVLQDQTLIAVPRKDRMSPVTIALISCRHVETLEKDRGNPIYLGLNGLNLCLMCAKVGDQPTLQLKEKDIMDLYNQPEPVKSFLFSHSQSGRNSTFESVAFPGWFIAVSSEGGCPLILTQELGKANTTDFGLTMLF
The molecule B5 came in with a Raman coordination state of 5c.

B6: Y108SC136SP137A: IL-36α protein mutant Y108S C136S P137A (protein, UniProt Q9UHA7 6-158, looked up, variant Y108S C136S P137A)
Interleukin-36 alpha: KIDTPQQGSIQDINHRVWVLQDQTLIAVPRKDRMSPVTIALISCRHVETLEKDRGNPIYLGLNGLNLCLMCAKVGDQPTLQLKEKDIMDLYNQPEPVKSFLFSHSQSGRNSTFESVAFPGWFIAVSSEGGSALILTQELGKANTTDFGLTMLF
For B6, the Raman coordination state was determined as 5c.

B7: C136SP137A: IL-36α protein mutant C136S P137A (protein, UniProt Q9UHA7 6-158, looked up, variant C136S P137A)
Interleukin-36 alpha: KIDTPQQGSIQDINHRVWVLQDQTLIAVPRKDRMSPVTIALISCRHVETLEKDRGNPIYLGLNGLNLCLMCAKVGDQPTLQLKEKDIMDLYNQPEPVKSFLFYHSQSGRNSTFESVAFPGWFIAVSSEGGSALILTQELGKANTTDFGLTMLF
B7: the Raman coordination state is reported as 5c.

B8: Y108SH109AC136SP137A: IL-36α protein mutant Y108S H109A C136S P137A (protein, UniProt Q9UHA7 6-158, looked up, variant Y108S H109A C136S P137A)
Interleukin-36 alpha: KIDTPQQGSIQDINHRVWVLQDQTLIAVPRKDRMSPVTIALISCRHVETLEKDRGNPIYLGLNGLNLCLMCAKVGDQPTLQLKEKDIMDLYNQPEPVKSFLFSASQSGRNSTFESVAFPGWFIAVSSEGGSALILTQELGKANTTDFGLTMLF
B8: the Raman coordination state turned out to be 5c.
